Reference: the supplement of paper PMC8975748
Where a name gives a salt, the structure may show the parent alone. ± gives the standard deviation of the averaged measurements. Some of the results follow. Values are raw readings; no control value is given beside them.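 One yeast strain harboring four plasmids, each bearing a fluorescent protein plus an amino-acid or uracil synthesis gene, founds the community. Random loss of plasmids produces mixed prototroph and auxotroph subpopulations. Cells were fixed, then counted with automated confocal fluorescence imaging, with DMSO-treated wells as vehicle reference.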

These compounds were tested on Saccharomyces cerevisiae BY4741 SeMeCo community (assay: imaged cell count per well (cells); higher = more cells). Conditions: 10 µM; 24 h; SM minimal medium.
Experimental: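 Same SeMeCo high-content imaging drug screen: Selleck FDA-approved drugs at 10 µM, 24 h in SM medium, 384-well plates, 3 replicates.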

Row | SMILES | imaged cell count per well
1 | C[C@@H]1C/C=C/C=C/C=C/C=C/[C@H](O[C@@H]2O[C@H](C)[C@@H](O)[C@H](N)[C@@H]2O)C[C@@H]2O[C@](O)(C[C@@H](O)C[C@H]3O[C@@H]3/C=C/C(=O)O1)C[C@H](O)[C@H]2C(=O)O [Natamycin] | 2130 ± 540
2 | N[C@@H]1CCCCN(c2c(F)cc3c(=O)c(C(=O)O)cn(C4CC4)c3c2Cl)C1 [Besifloxacin HCl] | 21900 ± 2000
3 | OC(CCCN1CCCCC1)(c1ccccc1)c1ccccc1 [Diphenidol HCl] | 23200 ± 12000
4 | CC(C)Cc1ccc(C(C)C(=O)O)cc1 (stereo not drawn) [Ibuprofen] | 15600 ± 3700
5 | CCCCCCCCCC(=O)N[C@@H](Cc1c[nH]c2ccccc12)C(=O)N[C@H](CC(N)=O)C(=O)N[C@@H](CC(=O)O)C(=O)N[C@@H]1C(=O)NCC(=O)N[C@@H](CCCN)C(=O)N[C@@H](CC(=O)O)C(=O)N[C@H](C)C(=O)N[C@@H](CC(=O)O)C(=O)NCC(=O)N[C@H](CO)C(=O)N[C@@H]([C@H](C)CC(=O)O)C(=O)N[C@@H](CC(=O)c2ccccc2N)C(=O)O[C@@H]1C [Daptomycin] | 33100 ± 5400
6 | C=C[C@]1(C)C[C@@H](OC(=O)CS[C@@H]2C[C@H]3CC[C@@H](C2)N3C)[C@]2(C)[C@H](C)CC[C@]3(CCC(=O)[C@H]32)[C@@H](C)[C@@H]1O [Retapamulin] | 24900 ± 430
7 | CN1CCN(C2=Nc3cc(Cl)ccc3Nc3ccccc32)CC1 [Clozapine] | 24500 ± 2600
8 | CCOc1ccc2nc3cc(N)ccc3c(N)c2c1 [Ethacridine lactate monohydrate] | 24000 ± 3300
9 | C#C[C@]1(O)CC[C@H]2[C@@H]3CCC4=CC(=O)CC[C@@H]4[C@H]3C(=C)C[C@@]21CC [Etonogestrel] | 24100 ± 6700
10 | O=C1N=C(O)NC1(c1ccccc1)c1ccccc1 [Phenytoin Sodium] | 17400 ± 2700
11 | O=C(O)c1cc(=O)c2c(OCC(O)COc3cccc4oc(C(=O)O)cc(=O)c34)cccc2o1 [Disodium Cromoglycate] | 20800 ± 10000
12 | COC(=O)C1=C(C)NC(C)=C(C(=O)OC(C)(C)CN(C)CCC(c2ccccc2)c2ccccc2)C1c1cccc([N+](=O)[O-])c1 (stereo not drawn) [Lercanidipine hydrochloride] | 27300 ± 6200
13 | C[N+]1(C)[C@@H]2C[C@@H](OC(=O)C(O)(c3cccs3)c3cccs3)C[C@H]1[C@@H]1O[C@@H]12 [Tiotropium Bromide hydrate] | 23400 ± 3100
14 | OCCN(CCO)c1nc(N2CCCCC2)c2nc(N(CCO)CCO)nc(N3CCCCC3)c2n1 [Dipyridamole] | 27200 ± 4100
15 | C=CC[N+]1([C@H]2C[C@H]3[C@@H]4CC[C@H]5C[C@H](O)[C@@H](N6CCOCC6)C[C@]5(C)[C@H]4CC[C@]3(C)[C@H]2OC(C)=O)CCCC1 [Rocuronium Bromide] | 24400 ± 5200
16 | CN(C)C[C@@H]1CCn2cc(c3ccccc32)C2=C(C(=O)NC2=O)c2cn(c3ccccc23)CCO1 | 21400 ± 2800
17 | CN1[C@@H]2CC[C@H]1C[C@@H](OC(=O)c1c[nH]c3ccccc13)C2 [Tropisetron] | 29000 ± 3400
18 | CCCCOc1ccc(C(=O)CCN2CCCCC2)cc1 [Dyclonine HCl] | 29300 ± 5100
19 | CC1(C)CC[C@]2(C(=O)O)CC[C@]3(C)C(=CC[C@@H]4[C@@]5(C)CC[C@H](O)C(C)(C)[C@@H]5CC[C@]43C)[C@@H]2C1 [Oleanolic Acid] | 24500 ± 4300

2 entries from above, as tab-separated lines:
Row	SMILES	imaged cell count per well
1	C[C@@H]1C/C=C/C=C/C=C/C=C/[C@H](O[C@@H]2O[C@H](C)[C@@H](O)[C@H](N)[C@@H]2O)C[C@@H]2O[C@](O)(C[C@@H](O)C[C@H]3O[C@@H]3/C=C/C(=O)O1)C[C@H](O)[C@H]2C(=O)O [Natamycin]	2130 ± 540
9	C#C[C@]1(O)CC[C@H]2[C@@H]3CCC4=CC(=O)CC[C@@H]4[C@H]3C(=C)C[C@@]21CC [Etonogestrel]	24100 ± 6700

The listing continues:

Row | SMILES | imaged cell count per well
20 | CN(C)CCCN1c2ccccc2Sc2ccccc21 [Promazine hydrochloride] | 16600 ± 5300
21 | CC(=O)[C@H]1CC[C@H]2[C@@H]3CCC4=CC(=O)CC[C@]4(C)[C@H]3CC[C@]12C [Progesterone] | 22900 ± 3200
22 | Cn1cc(C(=O)[C@@H]2CCc3[nH]cnc3C2)c2ccccc21 [Ramosetron Hydrochloride] | 18400 ± 7000
23 | O=C(O)c1ccccc1O [Salicylic acid] | 24500 ± 4500
24 | CCN1CCCC1CNC(=O)c1cc(S(N)(=O)=O)ccc1OC (stereo not drawn) [Sulpiride] | 21600 ± 3100
25 | CCN[C@@H]1C[C@H](N)[C@@H](O[C@H]2OC(CN)=CC[C@H]2N)[C@H](O)[C@H]1O[C@H]1OC[C@](C)(O)[C@H](NC)[C@H]1O [Netilmicin Sulfate] | 20100 ± 4600
26 | Cc1noc(NS(=O)(=O)c2ccc(N)cc2)c1C [Sulfisoxazole] | 18900 ± 930
27 | CN[C@H]1C(=O)N[C@@H]2Cc3ccc(cc3)Oc3cc4cc(c3O[C@@H]3O[C@H](C(=O)O)[C@@H](O)[C@H](O)[C@H]3NC(=O)CCCCCCCCC(C)C)Oc3ccc(cc3Cl)[C@@H](O)[C@@H]3NC(=O)[C@H](NC(=O)[C@@H]4NC(=O)[C@@H](NC2=O)c2cc(cc(O)c2Cl)Oc2cc1ccc2O)c1ccc(O)c(c1)-c1c(O[C@H]2O[C@H](CO)[C@@H](O)[C@H](O)[C@@H]2O)cc(O)cc1[C@@H](C(=O)NCCCN(C)C)NC3=O [Dalbavancin] | 21400 ± 3500
28 | COc1cc(N)c(Cl)cc1C(=O)NC1CCN(CCCOc2ccc(F)cc2)CC1OC (stereo not drawn) [Cisapride] | 31200 ± 5100
29 | NC(=O)[C@@H]1CC[C@@H]2CN1C(=O)N2OS(=O)(=O)O [Avibactam sodium] | 15500 ± 5800
30 | CCCCOc1cc(C(=O)OCCN(CC)CC)ccc1N [Oxybuprocaine HCl] | 18400 ± 9900
31 | CCCCNC(=O)NS(=O)(=O)c1ccc(C)cc1 [Tolbutamide] | 22500 ± 6200
32 | Cc1ccsc1/C=C/C1=NCCCN1C [Morantel tartrate] | 24700 ± 1300
33 | C[N+]1(C)CCC(OC(=O)C(O)(c2ccccc2)C2CCCC2)C1 (stereo not drawn) [Glycopyrrolate] | 25600 ± 4000
34 | CCCCN1CCCC[C@H]1C(=O)Nc1c(C)cccc1C [Levobupivacaine HCl] | 28200 ± 3300
35 | CC(C)NC(=N)NC(=N)Nc1ccc(Cl)cc1 [Proguanil] | 24400 ± 3000
36 | CC[C@@]1(O)C(=O)OCc2c1cc1n(c2=O)Cc2cc3cc(O)ccc3nc2-1 [(S)-10-Hydroxycamptothecin] | 25300 ± 3600
37 | CN1C(C(=O)Nc2ccccn2)=C(O)c2sc(Cl)cc2S1(=O)=O [Lornoxicam] | 26000 ± 7000
38 | CC(C)C(=O)Oc1ccc(CO)cc1[C@H](CCN(C(C)C)C(C)C)c1ccccc1 [Fesoterodine Fumarate] | 27400 ± 5000
